This is an account of results in the supplement of paper PMC10849652.

Amino acid sequences for entries named in this document (tags omitted). A change or cut given only in a name is not applied to a line headed by its entry.
UniProt A2RTX5: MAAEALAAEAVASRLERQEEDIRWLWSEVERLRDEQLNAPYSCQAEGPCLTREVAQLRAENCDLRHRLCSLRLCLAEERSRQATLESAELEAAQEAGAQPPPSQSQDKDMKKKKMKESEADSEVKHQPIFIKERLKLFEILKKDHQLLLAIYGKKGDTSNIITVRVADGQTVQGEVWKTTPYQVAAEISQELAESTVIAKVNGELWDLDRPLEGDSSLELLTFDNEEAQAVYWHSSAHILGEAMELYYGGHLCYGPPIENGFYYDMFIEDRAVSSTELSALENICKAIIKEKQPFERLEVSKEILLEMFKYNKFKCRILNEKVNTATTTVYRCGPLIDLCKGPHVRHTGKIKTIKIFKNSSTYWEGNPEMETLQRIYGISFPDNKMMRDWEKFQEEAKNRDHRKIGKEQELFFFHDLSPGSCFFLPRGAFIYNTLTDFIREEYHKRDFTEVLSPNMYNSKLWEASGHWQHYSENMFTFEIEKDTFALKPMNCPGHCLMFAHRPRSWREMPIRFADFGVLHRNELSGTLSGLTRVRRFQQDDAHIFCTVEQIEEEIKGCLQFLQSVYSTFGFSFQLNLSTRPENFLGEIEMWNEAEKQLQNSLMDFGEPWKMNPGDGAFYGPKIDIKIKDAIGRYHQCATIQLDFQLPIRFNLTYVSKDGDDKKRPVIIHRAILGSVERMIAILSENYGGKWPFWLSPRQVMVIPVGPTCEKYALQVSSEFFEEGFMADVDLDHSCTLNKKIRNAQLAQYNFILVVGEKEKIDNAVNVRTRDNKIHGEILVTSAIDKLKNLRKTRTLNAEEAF
UniProt Q13190: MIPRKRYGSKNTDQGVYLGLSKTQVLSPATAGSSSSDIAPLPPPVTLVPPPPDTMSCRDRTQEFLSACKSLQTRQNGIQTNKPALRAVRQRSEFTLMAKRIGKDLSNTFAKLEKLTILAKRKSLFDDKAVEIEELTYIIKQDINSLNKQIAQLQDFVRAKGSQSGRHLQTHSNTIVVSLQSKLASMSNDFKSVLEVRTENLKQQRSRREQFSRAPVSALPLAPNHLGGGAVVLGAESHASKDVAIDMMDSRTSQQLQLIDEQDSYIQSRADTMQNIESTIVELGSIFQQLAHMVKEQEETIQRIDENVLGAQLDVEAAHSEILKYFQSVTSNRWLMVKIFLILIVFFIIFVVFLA
UniProt O60499: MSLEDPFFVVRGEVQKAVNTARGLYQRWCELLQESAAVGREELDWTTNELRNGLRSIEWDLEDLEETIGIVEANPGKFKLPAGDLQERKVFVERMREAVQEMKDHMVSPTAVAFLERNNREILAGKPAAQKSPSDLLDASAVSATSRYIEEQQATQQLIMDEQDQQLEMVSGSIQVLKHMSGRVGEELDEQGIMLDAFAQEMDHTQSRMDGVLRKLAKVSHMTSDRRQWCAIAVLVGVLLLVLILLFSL
UniProt O95359: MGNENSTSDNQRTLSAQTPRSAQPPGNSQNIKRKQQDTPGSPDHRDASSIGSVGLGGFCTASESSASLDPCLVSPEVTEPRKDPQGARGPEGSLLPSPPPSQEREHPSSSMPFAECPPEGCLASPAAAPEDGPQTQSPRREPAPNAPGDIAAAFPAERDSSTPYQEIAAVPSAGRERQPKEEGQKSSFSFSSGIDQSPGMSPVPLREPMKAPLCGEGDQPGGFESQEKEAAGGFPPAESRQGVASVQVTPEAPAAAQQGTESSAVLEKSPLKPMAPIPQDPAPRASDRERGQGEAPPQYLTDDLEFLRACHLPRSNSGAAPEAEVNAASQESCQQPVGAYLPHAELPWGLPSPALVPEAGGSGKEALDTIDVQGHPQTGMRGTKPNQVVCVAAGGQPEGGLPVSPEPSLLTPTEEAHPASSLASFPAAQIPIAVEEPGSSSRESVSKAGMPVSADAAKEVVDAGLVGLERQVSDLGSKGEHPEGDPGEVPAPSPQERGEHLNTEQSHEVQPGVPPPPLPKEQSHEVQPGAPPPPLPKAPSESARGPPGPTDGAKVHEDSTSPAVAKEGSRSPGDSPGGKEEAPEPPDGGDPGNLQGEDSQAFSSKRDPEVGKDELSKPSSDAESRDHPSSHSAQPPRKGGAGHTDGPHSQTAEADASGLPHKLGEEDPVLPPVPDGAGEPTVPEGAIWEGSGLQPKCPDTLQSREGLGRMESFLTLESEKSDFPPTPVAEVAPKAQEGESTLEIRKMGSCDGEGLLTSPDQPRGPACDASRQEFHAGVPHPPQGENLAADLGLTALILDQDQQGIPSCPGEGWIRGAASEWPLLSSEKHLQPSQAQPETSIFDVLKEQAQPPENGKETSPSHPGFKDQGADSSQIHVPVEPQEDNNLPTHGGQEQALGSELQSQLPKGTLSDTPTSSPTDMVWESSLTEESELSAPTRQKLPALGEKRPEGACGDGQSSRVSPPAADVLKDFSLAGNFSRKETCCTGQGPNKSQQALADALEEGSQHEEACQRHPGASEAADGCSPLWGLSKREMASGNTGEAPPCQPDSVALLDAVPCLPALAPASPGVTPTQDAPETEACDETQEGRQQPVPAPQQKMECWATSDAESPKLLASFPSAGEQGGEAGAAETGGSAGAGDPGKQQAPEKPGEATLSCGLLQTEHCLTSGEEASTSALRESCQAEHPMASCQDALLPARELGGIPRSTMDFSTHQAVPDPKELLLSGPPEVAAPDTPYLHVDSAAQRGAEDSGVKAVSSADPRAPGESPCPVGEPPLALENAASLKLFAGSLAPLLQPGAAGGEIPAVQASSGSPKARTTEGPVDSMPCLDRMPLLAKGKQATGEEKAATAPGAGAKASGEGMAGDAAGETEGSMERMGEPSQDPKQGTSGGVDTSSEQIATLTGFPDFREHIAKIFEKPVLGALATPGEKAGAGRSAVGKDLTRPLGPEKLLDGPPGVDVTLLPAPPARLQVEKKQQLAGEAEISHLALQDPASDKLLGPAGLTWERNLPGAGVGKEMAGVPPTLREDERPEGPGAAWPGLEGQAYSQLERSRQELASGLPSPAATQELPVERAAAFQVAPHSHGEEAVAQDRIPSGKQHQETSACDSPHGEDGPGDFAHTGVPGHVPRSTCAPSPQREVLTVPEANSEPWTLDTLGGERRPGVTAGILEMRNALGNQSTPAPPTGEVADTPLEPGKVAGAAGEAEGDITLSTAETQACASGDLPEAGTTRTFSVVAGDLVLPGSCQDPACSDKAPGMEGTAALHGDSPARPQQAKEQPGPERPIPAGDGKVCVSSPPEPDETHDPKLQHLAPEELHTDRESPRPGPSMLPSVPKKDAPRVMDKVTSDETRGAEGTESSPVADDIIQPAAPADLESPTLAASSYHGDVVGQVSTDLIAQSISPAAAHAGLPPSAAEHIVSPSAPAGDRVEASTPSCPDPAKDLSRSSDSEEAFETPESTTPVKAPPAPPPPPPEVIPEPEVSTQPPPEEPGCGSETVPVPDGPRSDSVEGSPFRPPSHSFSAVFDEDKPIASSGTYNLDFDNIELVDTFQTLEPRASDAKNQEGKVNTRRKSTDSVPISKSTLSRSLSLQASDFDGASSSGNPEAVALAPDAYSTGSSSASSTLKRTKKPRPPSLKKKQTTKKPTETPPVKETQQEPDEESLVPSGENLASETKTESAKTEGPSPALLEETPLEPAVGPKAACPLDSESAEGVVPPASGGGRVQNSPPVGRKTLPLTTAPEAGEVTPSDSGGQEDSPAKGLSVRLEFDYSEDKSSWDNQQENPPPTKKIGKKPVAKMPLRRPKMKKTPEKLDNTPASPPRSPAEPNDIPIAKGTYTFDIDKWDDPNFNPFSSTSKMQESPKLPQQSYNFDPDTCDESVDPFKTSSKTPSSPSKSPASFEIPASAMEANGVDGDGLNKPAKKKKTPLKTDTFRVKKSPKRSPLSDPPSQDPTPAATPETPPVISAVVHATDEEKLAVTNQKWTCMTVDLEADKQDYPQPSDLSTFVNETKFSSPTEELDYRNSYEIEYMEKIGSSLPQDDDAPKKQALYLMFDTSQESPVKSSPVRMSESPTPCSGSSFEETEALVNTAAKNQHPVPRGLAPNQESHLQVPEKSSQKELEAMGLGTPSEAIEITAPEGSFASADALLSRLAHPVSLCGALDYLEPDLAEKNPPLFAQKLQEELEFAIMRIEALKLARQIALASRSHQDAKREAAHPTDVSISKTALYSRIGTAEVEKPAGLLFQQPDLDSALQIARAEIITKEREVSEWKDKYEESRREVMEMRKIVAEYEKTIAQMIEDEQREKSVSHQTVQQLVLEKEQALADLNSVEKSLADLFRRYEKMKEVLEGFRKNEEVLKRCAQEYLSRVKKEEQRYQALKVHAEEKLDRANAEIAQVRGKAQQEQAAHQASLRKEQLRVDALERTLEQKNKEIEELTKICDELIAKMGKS
UniProt O94864: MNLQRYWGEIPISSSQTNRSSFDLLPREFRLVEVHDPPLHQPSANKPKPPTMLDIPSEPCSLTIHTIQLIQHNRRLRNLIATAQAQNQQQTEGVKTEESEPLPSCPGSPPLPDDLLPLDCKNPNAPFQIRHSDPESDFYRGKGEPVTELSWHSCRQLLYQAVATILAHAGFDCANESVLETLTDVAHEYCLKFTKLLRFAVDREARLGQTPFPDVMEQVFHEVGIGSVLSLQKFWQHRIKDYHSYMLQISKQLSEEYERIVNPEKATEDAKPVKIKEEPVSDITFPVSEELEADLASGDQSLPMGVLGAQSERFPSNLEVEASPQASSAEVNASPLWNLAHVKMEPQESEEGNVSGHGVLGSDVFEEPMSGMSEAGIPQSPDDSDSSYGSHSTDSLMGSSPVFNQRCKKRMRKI
UniProt Q9P2R7: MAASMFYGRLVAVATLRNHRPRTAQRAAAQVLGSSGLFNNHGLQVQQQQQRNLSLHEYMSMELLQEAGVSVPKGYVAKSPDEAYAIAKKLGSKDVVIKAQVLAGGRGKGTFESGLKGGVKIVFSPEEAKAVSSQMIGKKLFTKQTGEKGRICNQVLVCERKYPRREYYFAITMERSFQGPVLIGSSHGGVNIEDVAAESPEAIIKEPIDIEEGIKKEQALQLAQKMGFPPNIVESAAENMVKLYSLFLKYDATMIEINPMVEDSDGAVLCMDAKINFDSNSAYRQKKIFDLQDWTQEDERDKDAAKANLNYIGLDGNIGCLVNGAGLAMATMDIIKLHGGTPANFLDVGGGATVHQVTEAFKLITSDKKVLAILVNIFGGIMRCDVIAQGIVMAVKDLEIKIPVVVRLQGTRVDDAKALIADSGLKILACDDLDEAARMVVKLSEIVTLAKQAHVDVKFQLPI
UniProt Q13148, whole entry, looked up: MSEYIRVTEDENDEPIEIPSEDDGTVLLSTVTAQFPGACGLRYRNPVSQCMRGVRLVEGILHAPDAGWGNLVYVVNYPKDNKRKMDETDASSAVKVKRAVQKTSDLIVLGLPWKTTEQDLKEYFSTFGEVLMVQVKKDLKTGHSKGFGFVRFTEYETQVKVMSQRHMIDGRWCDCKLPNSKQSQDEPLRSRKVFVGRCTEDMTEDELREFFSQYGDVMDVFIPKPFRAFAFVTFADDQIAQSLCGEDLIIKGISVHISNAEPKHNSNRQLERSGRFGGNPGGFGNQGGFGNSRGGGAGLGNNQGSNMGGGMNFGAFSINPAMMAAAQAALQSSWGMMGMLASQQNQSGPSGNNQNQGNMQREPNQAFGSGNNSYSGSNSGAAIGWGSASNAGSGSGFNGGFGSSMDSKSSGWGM
UniProt Q9NZ72: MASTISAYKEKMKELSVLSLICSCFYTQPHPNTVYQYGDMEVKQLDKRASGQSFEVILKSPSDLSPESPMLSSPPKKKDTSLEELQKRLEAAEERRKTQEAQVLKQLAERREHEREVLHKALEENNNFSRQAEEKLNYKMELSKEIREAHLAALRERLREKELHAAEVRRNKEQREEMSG
UniProt Q9NRL3: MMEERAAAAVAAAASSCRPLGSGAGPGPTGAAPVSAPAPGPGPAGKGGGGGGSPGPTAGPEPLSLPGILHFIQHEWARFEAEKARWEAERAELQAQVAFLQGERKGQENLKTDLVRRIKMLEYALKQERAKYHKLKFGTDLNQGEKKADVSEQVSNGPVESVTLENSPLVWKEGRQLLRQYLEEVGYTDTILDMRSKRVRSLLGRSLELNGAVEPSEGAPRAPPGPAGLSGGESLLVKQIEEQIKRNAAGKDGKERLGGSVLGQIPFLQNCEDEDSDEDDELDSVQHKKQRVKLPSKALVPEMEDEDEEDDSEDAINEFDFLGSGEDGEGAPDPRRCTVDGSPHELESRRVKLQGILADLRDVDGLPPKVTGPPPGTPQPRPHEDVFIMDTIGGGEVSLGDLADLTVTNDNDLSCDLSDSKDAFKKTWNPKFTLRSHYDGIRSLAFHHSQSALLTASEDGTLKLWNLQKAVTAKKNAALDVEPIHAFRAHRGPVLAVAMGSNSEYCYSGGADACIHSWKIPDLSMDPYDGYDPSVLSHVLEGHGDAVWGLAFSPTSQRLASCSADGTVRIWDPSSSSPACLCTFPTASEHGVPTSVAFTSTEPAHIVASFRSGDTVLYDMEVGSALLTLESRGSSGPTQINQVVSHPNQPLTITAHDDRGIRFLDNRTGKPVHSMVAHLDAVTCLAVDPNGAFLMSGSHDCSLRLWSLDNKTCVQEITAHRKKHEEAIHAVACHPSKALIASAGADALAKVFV

The list shows a part of the results.

Holding throughout (test): log2 fold change, soluble protein after heating vs DMSO (PISA); higher = thermal stabilisation; K562 cells, 10 uM, 30 min; active = over 0.2 and 3.5 SD of the protein, either way, in both replicates (recomputed)
Compound in test [1]: C1=CC=C(C=C1)[C@H](COC2=CC3=C(C=C2)NC(=O)N3)NC(=O)C4=CC=CN(C4=O)CC5=CC(=C(C=C5)F)F
In short, it runs like this: (§1)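 Quantification of soluble protein used TMTpro 16plex LC-MS/MS, with channel sums equalised. Samples were the supernatant after 21,000xg for 90 min of pooled aliquots from K562 cells (2×10^6 cells/mL) treated with 10 μM compound for 30 min, heated for 3 min over 48°C-58°C, and extracted in PBS with 0.5% NP-40 at 4°C. Values, from duplicates, describe thermal stability against control samples on a log2 fold-change scale.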

Compound in test [2]: CC1=C(SC2=C1C(=N[C@H](C3=NN=C(N32)C)CC(=O)N)C4=CC=C(C=C4)Cl)C
In short, it runs like this: as §1

Compound in test [3]: CC1=C2C(=CC=C1)N=C(N(C2=O)C3=CC=CC=C3C)CN4C=NC5=C(N=CN=C54)N
In short, it runs like this: as §1

Compound in test [4]: Cc1sc2c(c1C)C(c1ccc(Cl)cc1)=N[C@@H](CC(=O)OC(C)(C)C)c1nnc(C)n1-2
In short, it runs like this:
as §1

Compound in test [5]: c1ccc([C@@H]2C[C@H]2NC2CCNCC2)cc1
The method in brief:
as §1

On to SUPT4H1 (UniProt P63272), for which the log2 fold change is inactive: 0.013 in test [1]; inactive: 0.192 in test [2]; inactive: 0.092 in test [3]; inactive: 0.002 in test [4]; inactive: 0.005 in test [5].
The like results for TARSL2 (UniProt A2RTX5) were, in that order, inactive: -0.04, inactive: 0.079, inactive: 0.067, inactive: 0.006 and inactive: -0.056.
As to STK38L (UniProt Q9Y2H1), the log2 fold change in test [1] was inactive: -0.009; in test [2] it was active: 0.472; in test [3] it was inactive: 0.162; in test [4], inactive: 0.07; in test [5], inactive: 0.224.
As for STK36 (UniProt Q9NRP7), the log2 fold change in test [1] is inactive: 0.
On to STX5 (UniProt Q13190), for which the log2 fold change in test [1] was inactive: -0.057; in test [2], inactive: 0.017; in test [3], inactive: 0.045; in test [4] it was inactive: -0.025; in test [5], inactive: -0.068.
In the case of STX10 (UniProt O60499), the log2 fold change in test [1] was inactive: -0.122; in test [2], inactive: -0.041; in test [3], inactive: 0.029; in test [4], inactive: -0.082; in test [5], inactive: 0.037.
In the case of TACC2 (UniProt O95359), the log2 fold change was inactive: -0.031 in test [1]; inactive: -0.03 in test [2]; inactive: 0.166 in test [3]; inactive: 0.011 in test [4]; inactive: 0.05 in test [5].
Consider SUPT7L (UniProt O94864), for which the log2 fold change in test [1] is inactive: -0.174.
In the case of SUCLA2 (UniProt Q9P2R7), the log2 fold change in test [1] was inactive: -0.029; in test [2] it was inactive: 0.07; in test [3], inactive: 0.113; in test [4], inactive: -0.017; in test [5], inactive: -0.044.
For the target TARDBP (UniProt Q13148), the log2 fold change was inactive: -0.143 in test [1]; inactive: -0.17 in test [2]; inactive: -0.06 in test [3]; inactive: 0.004 in test [4]; inactive: 0.187 in test [5].
In the same order, the values of STMN3 (UniProt Q9NZ72) are inactive: 0.021, inactive: 0.022, inactive: -0.015, inactive: 0.032 and inactive: 0.063.
In the same order, the values of SYAP1 (UniProt Q96A49) are inactive: -0.03, inactive: 0.059, inactive: 0.007, inactive: -0.009 and inactive: 0.019.
For the target STRN4 isoform 3 (UniProt Q9NRL3), the log2 fold change is inactive: -0.046 in test [1]; inactive: 0.028 in test [2]; inactive: 0.065 in test [3]; inactive: -0.028 in test [4]; inactive: 0.004 in test [5].
In the same order, the values of SYNJ2BP-COX16, A0A087WYV9 are inactive: 0.038, inactive: -0.022, inactive: 0.013, inactive: 0.004 and inactive: 0.021.
